Laboratory results published in PMC8125178, “Fluorescence Correlation Spectroscopy Analysis of Effect of Molecular Crowding on Self-Assembly of β-Annulus Peptide into Artificial Viral Capsid” (International Journal of Molecular Sciences, 2021).
Results are given in words; binding and its absence hold for the method and conditions named.

Assays:
[1] = target: BODIPY-β-annulus peptide (tomato bushy stunt virus); assay: fluorescence correlation spectroscopy (FCS); 0.1 μM BODIPY-β-annulus peptide with 0~200 μM β-annulus peptide in 10 mM Tris-HCl buffer (pH 7.0) with 5 wt% PEG2000, 25 °C; ratio of the slow component fitted to the Hill equation; both purified
[2] = target: BODIPY-β-annulus peptide (tomato bushy stunt virus); assay: fluorescence correlation spectroscopy (FCS); 0.1 μM BODIPY-β-annulus peptide with 0~200 μM β-annulus peptide in 10 mM Tris-HCl buffer (pH 7.0), sonicated 10 min, incubated 30 min, 25 °C; ratio of the slow component fitted to the Hill equation; apparent Kd; both purified

Binder: CINHVGGTGGAIMAPVAVTRQLVGS (BODIPY-maleimide added by Michael addition to the thiol of the N-terminal Cys) [BODIPY-β-annulus peptide]
- binding [1]: no binding (tested: 0.1 μM)
- binding [2]: no binding (tested: 0.1 μM)
